Assay results from PubChem BioAssay AID504648 (National Center for Advancing Translational Sciences (NCATS), 2011).
About 610 (0.16%) of roughly 390,000 compounds were called active. The shares of active, inactive and inconclusive entries below differ from those in the screen. Calls follow the shape of the dose curve; as a rule, active = well fitted inhibition curve with a large enough effect; inconclusive = small, poorly fitted or top-dose-only effect, or effect the other way, or another doubt; inactive = no such curve, though single readings can be large or run the other way. Where the call is inconclusive, the potency comes from a doubtful curve fit.

Assay: Nrf2 qHTS screen for inhibitors: counterscreen for cytotoxicity
Conditions: A549 ARE-Fluc cells, CellTiter-Fluor viability, 18-24 h; activity change, negative = cytotoxicity: at 46 µM (top of the series)
Method in brief: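 A549 ARE-Fluc cells in 5% FBS OPTI-MEM, 5000 cells/well, rested 2 h then exposed to compounds in concentration-response for 18-24 h at 37 °C. Viability by CellTiter-Fluor fluorescence (Ex 405/Em 525) after 30 min; luciferase luminescence (BugLite, 15 min, RT) read afterwards.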
% is scaled to controls: 0 for no effect and ±100 for the full control effect; potency is read from the fitted curve at half-maximal effect.

SMILES	Potency	activity change, negative = cytotoxicity
Cc1ccc(S(=O)(=O)NCC(=O)N(c2ccccc2)C(C(=O)NCc2ccccc2)c2ccco2)cc1 (stereo unspecified)	inconclusive: 32.6 µM [falling, single point]	–
COc1cc(CNC(C)(C)CO)ccc1OCC(=O)NC(C)(C)C	inconclusive: 23.1 µM [activator, partial curve, poor fit]	–
COC(=O)Nc1ccc(S(=O)(=O)N2CCC(C(=O)N3CCC(C)CC3)CC2)cc1	inconclusive: 0.651 µM [activator, full curve, poor fit]	–
Cc1cc(-c2csc(N)n2)c(C)n1Cc1ccco1	–	inactive: -1.71%
CCc1nnc(NC(=O)CSc2nnc(Cc3ccccc3)n2Cc2ccccc2)s1	inconclusive: 29.1 µM [falling, single point]	–
N#CC1(c2ccc(NC(=O)c3ccccc3F)cc2)CCCC1	inconclusive: 20.6 µM [falling, single point]	–
Cc1ccc(OCC(=O)N2N=C(C(F)(F)F)CC2(O)C(C)(C)C)cc1C (stereo unspecified)	inconclusive: 29.1 µM [falling, single point]	–
CCOC(=O)C1(Cc2cccc(Cl)c2)CCCN(C(=O)c2cc(C)[nH]n2)C1 (stereo unspecified)	–	inactive: 0.623%
O=C(CCCc1nc(-c2ccccc2Cl)no1)NC1CCCC1	–	inactive: -4.85%
CC(Cc1ccccc1)N1CCCC1=O (stereo unspecified)	–	inactive: -1.93%
CN1C(=O)C(CC(=O)Nc2ccc(F)cc2)N(CCCc2ccccc2)C1=S (stereo unspecified)	inconclusive: 20.6 µM [falling, single point]	–
CC(C)CCn1nnnc1CN1CCN(C(c2ccccc2)c2ccccc2)CC1	inconclusive: 29.1 µM [falling, partial curve, poor fit]	–
CCCn1c(=O)c2[nH]c(-c3ccc(OCC(=O)Nc4ccc(C#N)cc4)cc3)nc2n(CCC)c1=O	–	inactive: 8.29%
Cc1snc(S(=O)(=O)/C(C#N)=N\Nc2ccccc2)c1C#N	–	inactive: -10.4%
COc1cc(C(=O)Nc2cc(-c3nc4cc(C)ccc4o3)ccc2C)cc(OC)c1OC	inconclusive: 29.1 µM [falling, single point]	–
CCOC(=O)/C=c1\s/c(=C\c2c(OC)ccc3ccccc23)c(=O)n1CC(=O)NCC1CCCO1 (stereo unspecified)	inconclusive: 5.8 µM [falling, full curve, poor fit]	–
Cc1cc(NS(=O)(=O)c2ccc(NC(=O)COc3c(C)ccc(C)c3C)cc2)nc(C)n1	–	inactive: 1.12%
O=C(OC(C(=O)NC1CCCC1)c1cccnc1)C1=Cc2ccccc2OC1 (stereo unspecified)	inconclusive: 4.61 µM [activator, partial curve, poor fit]	–
CC1CCCCN1Cc1c(O)ccc2c(=O)c(-c3nc4ccccc4s3)c(N)oc12 (stereo unspecified)	inconclusive: 29.1 µM [falling, single point]	–
CCNc1ccc(Br)cc(C(=O)/C=C/c2ccc(Cl)cc2)c1=O	inconclusive: 29.1 µM [falling, single point]	–
Clc1cccc(Cl)c1CSc1nnc(-c2sccc2-n2cccc2)o1	inconclusive: 32.6 µM [activator, single point]	–
COc1ccc(CNC(=O)COCc2cc(-c3ccc4c(c3)OCO4)on2)cc1	inconclusive: 18.4 µM [activator, partial curve, poor fit]	–

SMILES	Potency	activity change, negative = cytotoxicity
O=C(COC(=O)c1cc([N+](=O)[O-])ccc1N1CCOCC1)Nc1ccc(Cl)cc1	inconclusive: 20.6 µM [falling, partial curve, poor fit]	–
CCn1c(SCC(=O)N/N=C/c2ccc(C)s2)nc2ccccc21	–	inactive: -7.22%
O=C(CCl)NC(Cc1ccccc1)C(=O)OCC(=O)c1ccc(-c2ccccc2)cc1 (stereo unspecified)	–	inactive: -4.29%
Cc1oc(-c2ccccc2F)nc1CS(=O)(=O)CC(=O)N1CCN(c2ccccc2)CC1	inconclusive: 2.06 µM [activator, partial curve]	–
COc1cc(/C=C/C(=O)CC(=O)/C=C/c2ccc(O)c(OC)c2)ccc1O	inconclusive: 20.6 µM [falling, single point]	–
Cc1ccc(NC(=O)c2cc(C(=O)c3cc(Cl)ccc3O)cn(-c3ccc(C)cc3)c2=O)cc1	–	inactive: 0.0209%
Cc1ccccc1C1=C/C(=C(\SS/C(C(=O)c2ccc(OCC(=O)O)c(Cl)c2Cl)=C2\C=C(c3ccccc3C)SS2)C(=O)c2ccc(OCC(=O)O)c(Cl)c2Cl)SS1	inconclusive: 16.4 µM [falling, partial curve]	–
COc1ccc(NS(=O)(=O)c2cccc(C(=O)NCc3ccccc3CN3CCCC3)c2)cc1	inconclusive: 2.31 µM [falling, full curve]	–
Cc1ccc(/C=N/NC(=O)c2cc(-c3cccnc3)nc3ccccc23)cc1	inconclusive: 3.66 µM [falling, full curve]	–
CN(C)CC(C)(C)CNS(=O)(=O)c1ccc(Cl)c(Cl)c1	inconclusive: 32.6 µM [activator, partial curve, poor fit]	–
CC[n+]1c(/C=C/C=C/N(C(C)=O)c2ccccc2)sc2ccccc21	inconclusive: 20.6 µM [falling, single point]	–
O=C1C(SCCO)=C(SCCO)C(=O)c2ccccc21	inconclusive: 29.1 µM [falling, single point]	–
Cc1nn2c(-c3ccco3)nnc2c2ccccc12	–	inactive: -9.39%
O=C(CN1C(=O)COc2ccc(S(=O)(=O)NC3CCCC3)cc21)Nc1ccc(Cl)cc1F	–	inactive: 2.2%
COc1ccc(OC)c(S(=O)(=O)Nc2ccc3c(c2)n(C)c(=O)n3C)c1	inconclusive: 1.46 µM [activator, full curve, poor fit]	–
COc1cccc(C2=Nn3c(nnc3-c3cc(OC)cc(OC)c3)SC2)c1	–	inactive: -8.81%
Cc1ccc(S(=O)(=O)N2CC=C(c3c(C)n(CC(=O)N4CCCC4)c4ccccc34)CC2)cc1C	–	inactive: -7.22%
CCOC(=O)/C(C#N)=C/c1c(N2CCN(c3cccc(Cl)c3)CC2)nc2c(C)cccn2c1=O	inconclusive: 16.4 µM [falling, partial curve, poor fit]	–
CC(C)(C)c1ccc(C(=O)NCCCN2CCN(CCCNC(=O)c3ccc(C(C)(C)C)cc3)CC2)cc1	inconclusive: 29.1 µM [falling, single point]	–
CCCc1cc(=O)oc2cc3oc(C)c(C)c3cc12	–	inactive: 10.5%
Cc1ccc(SCCNC(=O)c2ccccc2C)cc1	inconclusive: 14.6 µM [activator, partial curve, poor fit]	–
N#C/C(=C\c1cccnc1)c1nc2ccccc2[nH]1	inconclusive: 20.6 µM [falling, partial curve, poor fit]	–

SMILES	Potency	activity change, negative = cytotoxicity
COC(=O)/C(C#N)=C\c1c(OC)[nH]c2ccccc12	inconclusive: 13 µM [falling, single point]	–
CCCN1CCC(=NNc2ccc(S(N)(=O)=O)cc2[N+](=O)[O-])CC1	–	inactive: -1.05%
Cn1ccc2cc(S(=O)(=O)N3CCCC(C(=O)NCc4ccccc4)C3)ccc21 (stereo unspecified)	–	inactive: -3.85%
O=S1(=O)CCN(c2ccccc2CC(c2c[nH]c3ccccc23)c2c[nH]c3ccccc23)CC1	inconclusive: 18.4 µM [falling, partial curve, poor fit]	–
CC(C)NCCCCOc1ccc(Br)cc1Cl	inconclusive: 32.6 µM [activator, partial curve, poor fit]	–
COc1ccc(C(CC(=O)c2ccc(C)cc2)C(C#N)C#N)cc1OC (stereo unspecified)	inconclusive: 32.6 µM [falling, partial curve, poor fit]	–
O=C(OCc1cnc(Cl)s1)c1cccc(Cl)c1	inconclusive: 20.6 µM [activator, partial curve, poor fit]	–
CN1C(=CC=C2C=C(I)C(=O)C(I)=C2)C(C)(C)c2ccccc21	inconclusive: 29.1 µM [falling, single point]	–
O=C1CC(C(=O)Nc2ccc(F)cc2)S/C(=N\N=C\c2ccco2)N1 (stereo unspecified)	–	inactive: -3.76%
COc1ccc(N2CCN(c3ncnc4c3[nH]c3ccccc34)CC2)cc1	–	inactive: -10%
CSc1ccc(OC2CCN(Cc3ccccc3)CC2)cc1	inconclusive: 18.4 µM [falling, single point]	–
Cc1ccc(S(=O)(=O)N2CCN(CC(=O)Nc3ccc([N+](=O)[O-])cc3)CC2)cc1C	–	inactive: -6.34%
CCOC(=O)N1CCN(c2nc(C)cc(C(F)(F)F)n2)CC1	inconclusive: 29.1 µM [falling, partial curve, poor fit]	–
CC(=O)C1=C(c2ccc(C)cc2)N(C(C)=O)n2c(nnc2C2CCCCC2)S1	inconclusive: 20.6 µM [falling, single point]	–
Clc1ccsc1-c1csc(-c2cccnc2)n1	inconclusive: 29.1 µM [falling, single point]	–
COc1cccc2cc(-c3nc(Nc4cccc(C)c4)sc3C)c(=O)oc12	–	inactive: -9.56%
Cc1nonc1OCCNc1ccc([N+](=O)[O-])cc1[N+](=O)[O-]	inconclusive: 7.31 µM [falling, partial curve]	–
CCN(CC)C(=O)CSc1nc2ccccc2c(=O)n1OC(C)C	inconclusive: 0.651 µM [falling, full curve, poor fit]	–
Cc1cc(Br)ccc1NC(=O)CN(C)C(=O)c1cc([N+](=O)[O-])ccc1N1CCOCC1	inconclusive: 18.4 µM [falling, single point]	–
O=C1[C@H](Cc2ccccc2)NCCCC[C@H](c2ccc(Cl)cc2)N1Cc1ccccc1	inconclusive: 20.6 µM [falling, partial curve, poor fit]	–
c1ccc(CN2CCC(CNc3ncnc4ccccc34)C2)cc1 (stereo unspecified)	–	inactive: -12.8%
CCOC(=O)CSc1nc(-c2ccc(C)cc2C)cc(-c2ccccc2)c1C#N	inconclusive: 16.4 µM [activator, partial curve, poor fit]	–

Part of the list above, bar-delimited.
SMILES | Potency | activity change, negative = cytotoxicity
Cn1ccc2cc(S(=O)(=O)N3CCCC(C(=O)NCc4ccccc4)C3)ccc21 (stereo unspecified) | – | inactive: -3.85%
c1ccc(CN2CCC(CNc3ncnc4ccccc34)C2)cc1 (stereo unspecified) | – | inactive: -12.8%
